Data from PubChem BioAssay AID180 (DTP/NCI, 2004).
The list shows only some results of the screen, not a fair sample: it gathers some chemical classes. Other doses and runs of a compound may be missing. T/C is the treated group as % of the vehicle group. Schedules are NCI's codes, taken here to give the interval after Q, in days (D) or hours (H), and the number of doses after X. Some T/C values carry the count of animals alive at the toxicity check; without a count or a note in brackets, all were alive then. Some entries hold several experiments; the values are given in rising order. Some doses have a count of surviving animals in place of a T/C: the source files T/C as zero there, which appears to mark a toxic dose or a test without result, not a measured value. Survivors were counted at the toxicity check; its day is shown where the source gives one, and later deaths do not show.

System: BDF1 mice, Adenocarcinoma 755 s.c., tumor weight T/C
Assay: NCI In Vivo Anticancer Drug Screen. Data for tumor model Adenocarcinoma 755 (subcutaneous) in B6D2F1 (BDF1) mice
Conditions: T/C endpoint: mean tumor weight, schedule: Q01DX011 (ip), higher T/C = larger tumour; for T/C: evaluated on day 12
Experimental: The antitumor activity of compounds was measured in mice bearing transplantable tumors. Survival or tumor size were measured and the results are expressed as the measurement made in the treated group (T) divided by the measurement made in the vehicle treated control group (C). The tumor model used in this assay is Adenocarcinoma 755 (subcutaneous) in B6D2F1 (BDF1) mice

[1] = dose: 150.0 mg/kg/injection, vehicle: methylcellulose (MC)
[2] = dose: 35.0 mg/kg/injection, vehicle: methylcellulose (MC)

Compound: O=C(O)CCc1ccc(N(CCCl)CCCl)cc1
- T/C (dose: 1.0 mg/kg/injection, vehicle: saline): 41 % of control [8 of 10 alive]
- T/C (dose: 2.0 mg/kg/injection, vehicle: saline): 74 % of control
- T/C (dose: 4.0 mg/kg/injection, vehicle: saline): 65 % of control

Compound: O=C(O)/C=C\c1cccc(N(CCCl)CCCl)c1
- T/C (dose: 1.25 mg/kg/injection, vehicle: carboxymethylcellulose (CMC)): 103 % of control
- T/C (dose: 2.5 mg/kg/injection, vehicle: carboxymethylcellulose (CMC)): 78 % of control [9 of 10 alive]
- T/C (dose: 5.0 mg/kg/injection, vehicle: carboxymethylcellulose (CMC)): 89 % of control
- T/C (dose: 8.0 mg/kg/injection, vehicle: methylcellulose (MC)): 69 % of control
- T/C (dose: 10.0 mg/kg/injection, vehicle: carboxymethylcellulose (CMC)): 90 % of control [8 of 10 alive]
- T/C (dose: 11.25 mg/kg/injection, vehicle: methylcellulose (MC)): 29 % of control
- T/C (dose: 16.0 mg/kg/injection, vehicle: methylcellulose (MC)): 106 % of control
- T/C (dose: 22.5 mg/kg/injection, vehicle: methylcellulose (MC)): 34 % of control [8 of 10 alive]
- T/C (dose: 32.0 mg/kg/injection, vehicle: methylcellulose (MC)): 2 % of control
- survivor count (dose: 90.0 mg/kg/injection, vehicle: methylcellulose (MC)): 3 of 10

Compound: O=P(NCCCO)(OCCCl)N(CCCl)CCCl (stereo not given)
- T/C (dose: 28.0 mg/kg/injection, vehicle: distilled water + alcohol): 88 % of control [9 of 10 alive]
- T/C (dose: 37.5 mg/kg/injection, vehicle: methylcellulose (MC)): 73 and 89 % of control [9 of 10 alive]
- T/C (dose: 57.0 mg/kg/injection, vehicle: distilled water + alcohol): 123 % of control [8 of 10 alive]
- T/C (dose: 75.0 mg/kg/injection, vehicle: methylcellulose (MC)): 42 and 79 % of control [9 of 10 alive]
- T/C (dose: 113.0 mg/kg/injection, vehicle: distilled water + alcohol): 85 % of control [9 of 10 alive]
- T/C [1]: 9 % of control
- survivor count [1]: 6 of 10
- T/C (dose: 300.0 mg/kg/injection, vehicle: methylcellulose (MC)): 2 [9 of 10 alive] and 25 % of control [8 of 10 alive]

Compound: NC(Cc1ccc(N(CCCl)CCCl)c(Cl)c1)C(=O)O (stereo not given)
- T/C (dose: 1.0 mg/kg/injection, vehicle: methylcellulose (MC)): 18 % of control [9 of 10 alive]
- survivor count (dose: 2.0 mg/kg/injection, vehicle: methylcellulose (MC)): 5 of 10

Compound: O=c1[nH]c(=O)c2[nH]c(/N=N\N(CCCl)CCCl)nc2[nH]1
- T/C (dose: 18.75 mg/kg/injection, vehicle: saline): 128 % of control
- T/C (dose: 37.5 mg/kg/injection, vehicle: saline): 147 % of control
- T/C (dose: 75.0 mg/kg/injection, vehicle: saline): 37 % of control
- T/C (dose: 150.0 mg/kg/injection, vehicle: saline): 29 [8 of 10 alive] and 131 % of control
- T/C (dose: 300.0 mg/kg/injection, vehicle: saline): 51 % of control [7 of 10 alive]

Compound: O=C(O)/C=C\c1ccccc1N(CCCl)CCCl
- T/C (dose: 4.4 mg/kg/injection, vehicle: methylcellulose (MC)): 51 and 66 % of control
- T/C (dose: 8.75 mg/kg/injection, vehicle: methylcellulose (MC)): 74 [9 of 10 alive] and 99 % of control
- T/C (dose: 17.5 mg/kg/injection, vehicle: methylcellulose (MC)): 35 and 75 % of control [9 of 10 alive]
- T/C [2]: 14 % of control
- survivor count [2]: 3 of 10

Compound: CCOP(=O)(NCCCO)N(CCCl)CCCl (stereo not given)
- T/C (dose: 28.0 mg/kg/injection, vehicle: methylcellulose (MC)): 75 % of control [9 of 10 alive]
- T/C (dose: 56.0 mg/kg/injection, vehicle: methylcellulose (MC)): 57 % of control
- T/C (dose: 112.0 mg/kg/injection, vehicle: methylcellulose (MC)): 11 % of control
- survivor count [1]: 5 of 10

Compound: O[C@H](CNCCCl)[C@@H](O)CNCCCl
- T/C (dose: 0.88 mg/kg/injection, vehicle: saline): 73 % of control [9 of 10 alive]
- T/C (dose: 1.75 mg/kg/injection, vehicle: saline): 62 % of control
- T/C (dose: 3.5 mg/kg/injection, vehicle: saline): 11 % of control
- T/C (dose: 4.5 mg/kg/injection, vehicle: distilled water + alcohol): 49 % of control
- T/C (dose: 7.0 mg/kg/injection, vehicle: saline): 1 % of control
- T/C (dose: 9.0 mg/kg/injection, vehicle: distilled water + alcohol): 41 % of control [8 of 10 alive]
- survivor count (dose: 14.0 mg/kg/injection, vehicle: saline): 5 of 10
- survivor count (dose: 18.0 mg/kg/injection, vehicle: distilled water + alcohol): 2 of 10

Compound: OC(CNCCCl)C(O)C(O)C(O)CNCCCl (stereo not given)
- T/C (dose: 0.63 mg/kg/injection, vehicle: saline): 24 % of control
- T/C (dose: 1.25 mg/kg/injection, vehicle: saline): 43 % of control
- T/C (dose: 2.24 mg/kg/injection, vehicle: carboxymethylcellulose (CMC)): 145 % of control
- T/C (dose: 2.5 mg/kg/injection, vehicle: saline): 12 % of control
- T/C (dose: 4.47 mg/kg/injection, vehicle: carboxymethylcellulose (CMC)): 64 % of control
- T/C (dose: 5.0 mg/kg/injection, vehicle: saline): 7 % of control [9 of 10 alive]
- T/C (dose: 5.23 mg/kg/injection, vehicle: carboxymethylcellulose (CMC)): 88 % of control [9 of 10 alive]
- T/C (dose: 8.38 mg/kg/injection, vehicle: carboxymethylcellulose (CMC)): 69 % of control
- T/C (dose: 8.95 mg/kg/injection, vehicle: carboxymethylcellulose (CMC)): 89 % of control [9 of 10 alive]
- T/C (dose: 10.47 mg/kg/injection, vehicle: carboxymethylcellulose (CMC)): 81 % of control [9 of 10 alive]
- T/C (dose: 10.48 mg/kg/injection, vehicle: carboxymethylcellulose (CMC)): 98 % of control
- T/C (dose: 13.97 mg/kg/injection, vehicle: carboxymethylcellulose (CMC)): 55 % of control
- T/C (dose: 16.9 mg/kg/injection, vehicle: carboxymethylcellulose (CMC)): 64 % of control
- T/C (dose: 20.95 mg/kg/injection, vehicle: carboxymethylcellulose (CMC)): 35 and 62 % of control [9 of 10 alive]
- T/C (dose: 41.9 mg/kg/injection, vehicle: carboxymethylcellulose (CMC)): 21 [8 of 10 alive] and 22 % of control [9 of 10 alive]
